{"source": "PubChem BioAssay AID1259261, Sanger Institute – 2017", "purpose": "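Kinase knock-downs that kill colorectal cancer cells or boost targeted drugs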 (primary screen)", "cells": "HCC2998 human colorectal cancer cells", "reagents": "siRNA pool against human genes", "challenge": "anchor drugs BYL719 1 µM, cetuximab 5 µg/ml or trametinib 10 nM, each compared with DMSO vehicle", "measurement": "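Viability as fraction of non-targeting control plus robust z-score without drug; synergy scores compare knock-down plus drug against each alone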", "direction": "viability z-score, knock-down alone: higher = more viable cells than controls; viability fraction, knock-down alone: higher = more viable cells", "active means": "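Essential when the siRNA-alone viability robust z-score is below -3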", "calls": "active = essential; inactive = no change", "note": "In all, the deposit lists 794 reagents; shown is an unselected part. Of all reagents, 10 (1.3%) were called active. 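Calls reflect knock-down alone without drug; synergy scores with BYL719, cetuximab or trametinib do not affect calls.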 No viability above 1 is reported: the scale is capped. Not all columns of the deposit are shown. The record does not give: the amount of reagent, the time to read-out."}
{"Gene": "ALK", "viability z-score, knock-down alone": 0.561, "viability fraction, knock-down alone": 0.919, "call": "inactive"}
{"Gene": "EIF2AK1", "viability z-score, knock-down alone": -0.0545, "viability fraction, knock-down alone": 0.842, "call": "inactive"}
{"Gene": "TBCK", "viability z-score, knock-down alone": 1.21, "viability fraction, knock-down alone": 1, "call": "inactive"}
{"Gene": "MAP3K7", "viability z-score, knock-down alone": 0.708, "viability fraction, knock-down alone": 0.938, "call": "inactive"}
{"Gene": "TRPM7", "viability z-score, knock-down alone": -0.583, "viability fraction, knock-down alone": 0.776, "call": "inactive"}
{"Gene": "SPHK2", "viability z-score, knock-down alone": -0.308, "viability fraction, knock-down alone": 0.81, "call": "inactive"}
{"Gene": "HSPB8", "viability z-score, knock-down alone": 0.931, "viability fraction, knock-down alone": 0.966, "call": "inactive"}
{"Gene": "BCR", "viability z-score, knock-down alone": -0.236, "viability fraction, knock-down alone": 0.819, "call": "inactive"}
{"Gene": "PIK3CD", "viability z-score, knock-down alone": 0.31, "viability fraction, knock-down alone": 0.888, "call": "inactive"}
{"Gene": "GALK1", "viability z-score, knock-down alone": -1.39, "viability fraction, knock-down alone": 0.674, "call": "inactive"}
{"Gene": "EXOSC10", "viability z-score, knock-down alone": -0.46, "viability fraction, knock-down alone": 0.791, "call": "inactive"}
{"Gene": "EFNA4", "viability z-score, knock-down alone": 0.206, "viability fraction, knock-down alone": 0.875, "call": "inactive"}
{"Gene": "PAK2", "viability z-score, knock-down alone": -0.32, "viability fraction, knock-down alone": 0.809, "call": "inactive"}
{"Gene": "HIPK1", "viability z-score, knock-down alone": -0.827, "viability fraction, knock-down alone": 0.745, "call": "inactive"}
{"Gene": "ADCK1", "viability z-score, knock-down alone": -0.315, "viability fraction, knock-down alone": 0.809, "call": "inactive"}
{"Gene": "NUCKS1", "viability z-score, knock-down alone": 0.889, "viability fraction, knock-down alone": 0.96, "call": "inactive"}
{"Gene": "FBXW7", "viability z-score, knock-down alone": 0.717, "viability fraction, knock-down alone": 0.939, "call": "inactive"}
{"Gene": "FRK", "viability z-score, knock-down alone": 0.678, "viability fraction, knock-down alone": 0.934, "call": "inactive"}
{"Gene": "VRK1", "viability z-score, knock-down alone": -0.0112, "viability fraction, knock-down alone": 0.847, "call": "inactive"}
{"Gene": "TGFBR1", "viability z-score, knock-down alone": -0.227, "viability fraction, knock-down alone": 0.82, "call": "inactive"}
{"Gene": "FASTK", "viability z-score, knock-down alone": 1, "viability fraction, knock-down alone": 0.975, "call": "inactive"}
{"Gene": "FN3K", "viability z-score, knock-down alone": 0.0231, "viability fraction, knock-down alone": 0.852, "call": "inactive"}
{"Gene": "STK17A", "viability z-score, knock-down alone": -0.689, "viability fraction, knock-down alone": 0.762, "call": "inactive"}
{"Gene": "LIMK1", "viability z-score, knock-down alone": -0.0484, "viability fraction, knock-down alone": 0.843, "call": "inactive"}
{"Gene": "TSSK6", "viability z-score, knock-down alone": 0.174, "viability fraction, knock-down alone": 0.871, "call": "inactive"}
{"Gene": "CAMKV", "viability z-score, knock-down alone": 0.742, "viability fraction, knock-down alone": 0.942, "call": "inactive"}
{"Gene": "GSK3B", "viability z-score, knock-down alone": 1.18, "viability fraction, knock-down alone": 0.997, "call": "inactive"}
{"Gene": "MARK2", "viability z-score, knock-down alone": 1.21, "viability fraction, knock-down alone": 1, "call": "inactive"}

Part of the list above, showing only “viability z-score, knock-down alone”.
FBXW7	0.717
FRK	0.678
VRK1	-0.0112
